Measured values as given in article doi:10.1101/2020.09.06.284745.
These are yes or no findings as the source states them, for the method shown. Some binding calls cover weakened binding; strength is not graded here.

How the values were obtained:
[1] = target: T1, SnRK1α1 Ubiquitin-associated domain (UBA) (Arabidopsis thaliana) (UniProt Q38997); assay: two-hybrid
T1 sequence: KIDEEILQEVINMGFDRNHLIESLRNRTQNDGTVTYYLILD

[2] = target: T2, RAPTOR1B (Regulatory-associated protein of TOR 1B) (Arabidopsis thaliana) (UniProt Q93YQ1); assay: two-hybrid
T2 sequence: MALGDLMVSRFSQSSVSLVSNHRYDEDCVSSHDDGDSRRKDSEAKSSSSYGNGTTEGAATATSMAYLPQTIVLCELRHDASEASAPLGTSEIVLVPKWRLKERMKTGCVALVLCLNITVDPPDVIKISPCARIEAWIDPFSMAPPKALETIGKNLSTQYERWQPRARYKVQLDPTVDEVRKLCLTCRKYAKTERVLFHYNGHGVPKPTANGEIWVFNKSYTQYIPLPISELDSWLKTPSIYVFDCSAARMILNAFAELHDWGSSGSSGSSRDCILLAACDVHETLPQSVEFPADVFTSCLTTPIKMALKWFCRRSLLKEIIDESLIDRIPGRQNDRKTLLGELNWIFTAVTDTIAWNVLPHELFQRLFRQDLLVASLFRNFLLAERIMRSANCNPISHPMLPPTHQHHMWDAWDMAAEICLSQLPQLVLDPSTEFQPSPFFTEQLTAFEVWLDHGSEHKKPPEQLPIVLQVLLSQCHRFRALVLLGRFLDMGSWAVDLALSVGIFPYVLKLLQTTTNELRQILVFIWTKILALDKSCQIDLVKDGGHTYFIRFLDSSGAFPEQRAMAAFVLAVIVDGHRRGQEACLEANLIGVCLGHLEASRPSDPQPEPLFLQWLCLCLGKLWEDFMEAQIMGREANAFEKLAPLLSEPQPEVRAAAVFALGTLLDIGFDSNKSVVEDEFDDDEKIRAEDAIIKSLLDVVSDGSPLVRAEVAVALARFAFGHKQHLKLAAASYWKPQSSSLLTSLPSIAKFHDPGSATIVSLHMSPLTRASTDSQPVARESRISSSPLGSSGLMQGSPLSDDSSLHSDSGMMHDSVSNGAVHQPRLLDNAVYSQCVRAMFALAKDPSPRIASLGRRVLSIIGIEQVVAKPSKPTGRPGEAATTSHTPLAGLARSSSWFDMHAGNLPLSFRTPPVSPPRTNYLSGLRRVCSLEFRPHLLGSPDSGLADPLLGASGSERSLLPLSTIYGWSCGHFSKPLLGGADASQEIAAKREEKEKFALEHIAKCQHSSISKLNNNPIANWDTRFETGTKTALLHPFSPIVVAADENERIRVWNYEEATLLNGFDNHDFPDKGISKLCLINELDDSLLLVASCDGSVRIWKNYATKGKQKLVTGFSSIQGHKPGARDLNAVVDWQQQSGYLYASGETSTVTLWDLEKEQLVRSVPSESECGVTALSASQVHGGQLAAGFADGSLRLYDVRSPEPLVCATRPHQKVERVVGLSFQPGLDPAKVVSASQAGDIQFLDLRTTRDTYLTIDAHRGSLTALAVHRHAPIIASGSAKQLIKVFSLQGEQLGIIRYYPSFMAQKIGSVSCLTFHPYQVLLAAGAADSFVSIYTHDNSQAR

binding [1]: binds
binding [2]: binds
B1: FCS-Like Zinc Finger 8 (FLZ8) (protein, UniProt Q8L471 1-267)
chain: MLKKRSRSKQALMAETNQSQNQKQSKTTPFPRLFTAFSSFKSFTENDAVASPTSILDTKPFSVLKNPFGSDNPKTQEPETRLKLEPKRIGLAIVDSLIQDETPEPGPRSGTILFGSQLRIRVPDSPISSSDFGIKTRNSQPETKKPGSESGLGSPRIISGYFPASDMELSEDYTCVTCHGPNPRTIHIFDNCIVESQPGVVFFRSSDPVNESDSDYSPPDSFLSCCCNCKKSLGPRDDIFMYRGDRAFCSSECRSIEMMMSEENDTK
